About 5,500 (1.4%) of roughly 400,000 compounds were called active. Inconclusive results, whose numbers are uncertain, are shown with a selection of clear calls. The call rests on the fitted dose curve; in most records, active means well fitted cell-killing curve with a large enough effect; inconclusive means small, poorly fitted or top-dose-only effect, or effect the other way; inactive means flat fitted curve, though single readings scatter. Where the call is inconclusive, the potency comes from a doubtful curve fit.
Experiment: qHTS assay for MDR1-selective chemotherapeutics: Primary screen using the parental adenocarcinoma cell KB-3-1; further: nearly all actives have a fitted effect of over 60% in size
Conditions: KB-3-1 viability, CellTiter-Glo ATP luminescence, 72 h; activity change, negative = cytotoxic: at 46.1 µM (top of the series)
Procedure, shortened: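 Cytotoxicity in the drug-sensitive parental line KB-3-1 was scored as loss of CellTiter-Glo luminescence following 72 h incubation with compound. Values come from curve fitting of normalized concentration-response data.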
On the % scale 0 is the no-effect control and ±100 the full control effect; potency means the concentration at half of the fitted maximal effect.

| SMILES | Potency | activity change, negative = cytotoxic |
| --- | --- | --- |
| CN1CCN(c2cc(N3CCCCCC3)c(F)cc2[N+](=O)[O-])CC1 | inactive | – |
| Cc1cccc(CN2CCN(c3ccc(Cl)cc3)CC2)c1 | inactive | – |
| COc1ccc(OC(=O)N(C)C[C@@H]2OCc3ccccc3-c3c(n(C)c4ccccc34)C(=O)N([C@H](C)CO)C[C@@H]2C)cc1 | inconclusive: 32.6 µM [cytotoxic, single point] | – |
| O=C(CN1CC(c2ccccc2)CC1=O)Nc1ccccc1 (stereo unspecified) | – | inconclusive: -1.81% |
| Cc1cccc(Cn2cccc(C(=O)Nc3ccc(F)cc3F)c2=O)c1 | – | inconclusive: 0% |
| CNC(=O)c1cccn(Cc2cc(C(F)(F)F)cc(C(F)(F)F)c2)c1=O | – | inconclusive: -30% [cytotoxic] |
| CN1CC[C@@]2(C)c3cc(O)ccc3N(C)C12 (stereo partly specified) | inconclusive: 29.1 µM [cytotoxic, single point] | – |
| CCC1C(c2cc(OC)c(OC)c(OC)c2)c2cc3c(cc2OC1N1CCCC1)OCO3 (stereo unspecified) | active: 4.11 µM | – |
| CC1=CC(=C2C(=O)NC(=S)NC2=O)C=C(C(F)(F)F)N1Cc1ccccc1 | active: 2.59 µM | – |
| COc1ccc(C2=NCc3nnc(C)n3-c3ccc(Cl)cc32)cc1Cl | inconclusive: 25.9 µM [cytotoxic, partial curve, poor fit] | – |
| CNc1ccc2oc(C[C@H]3O[C@@]4(CC[C@H]3C)O[C@H]([C@H](C)C(=O)c3ccc[nH]3)[C@H](C)C[C@H]4C)nc2c1C(=O)O | active: 4.11 µM | – |
| O=C(NC1CCCCC1)N1Cc2cc(N3CCOCC3)ccc2-n2nncc2C1 | inactive | – |
| CCc1cccc(CC)c1N(COC)C(=O)CCl | inconclusive: 18.4 µM [cytotoxic, single point] | – |
| CCOC(=O)c1c(-n2c(C)cc(/C=C3\C(=O)NC(=O)N(C)C3=O)c2C)sc2c1CCCC2 | inactive | – |
| O=c1[nH]c(=S)n(Cc2ccc(F)cc2)c(O)c1C=NCc1ccc2c(c1)OCO2 | inactive | – |
| Cc1ccc(C[n+]2c(-c3ccc(C)cc3)cc(-c3ccc(C)cc3)cc2-c2ccc(C)cc2)cc1 | active: 5.8 µM | – |
| CCC(=O)c1c(O)n(C2CCCCCC2)c(=O)[nH]c1=O | inconclusive: 18.4 µM [cytotoxic, single point] | – |
| O=C1NC(=O)N(c2ccc3c(c2)OCO3)C(=O)/C1=C/c1cccs1 | inconclusive: 20.6 µM [cytotoxic, single point] | – |
| CCOC(=O)Cc1csc(NC(=O)c2c(O)c3ccccc3n(CCC(C)C)c2=O)n1 | inconclusive: 29.1 µM [cytotoxic, single point] | – |
| CC12CCC(O)CC1CCC1C2CCC2(C)C(C(=O)CC(O)C(F)(F)F)CCC12 (stereo unspecified) | inconclusive: 25.9 µM [cytotoxic, partial curve, poor fit] | – |
| c1ccc2c(c1)[I+]c1ccccc1-2 | inconclusive: 11.6 µM [cytotoxic, partial curve, poor fit] | – |
| O=[N+]([O-])c1cc(C(F)(F)F)c(Cl)c([N+](=O)[O-])c1Nc1ncc(C(F)(F)F)cc1Cl | active: 1.46 µM | – |

| SMILES | Potency | activity change, negative = cytotoxic |
| --- | --- | --- |
| N#Cc1cc2c(nc1SCC(=O)Nc1ccc(Cl)cc1)C1CCN2CC1 | inconclusive: 20.6 µM [cytotoxic, single point] | – |
| O=[N+]([O-])c1ccc(N2CCOCC2)c2c1no[n+]2[O-] | inconclusive: 3.66 µM [cytotoxic, full curve, poor fit] | – |
| COC(=O)C1=C(c2ccc(F)cc2OCc2ccccc2)C[C@@H]2CC[C@H]1N2C(=O)NCCCOC(C)C | inactive | – |
| O=C1Nc2cc(C(=O)N3CCC4(CC3)OCCO4)ccc2S/C1=C\c1ccccc1 | inconclusive: 29.1 µM [cytotoxic, single point] | – |
| Cc1c(N=Cc2c(O)n(Cc3ccco3)c(=O)[nH]c2=O)c(=O)n(-c2ccccc2)n1C | inactive | – |
| O=C1/C(=C/c2ccccc2)C[C@@]2(O)[C@H]3Cc4ccc(O)c5c4[C@@]2(CCN3CC2CC2)C1O5 (stereo partly specified) | inconclusive: 20.6 µM [cytotoxic, single point] | – |
| Cc1[nH]c2ccccc2c1C(=O)CN1CC=C(c2ccccc2)CC1 | inconclusive: 32.6 µM [cytotoxic, single point] | – |
| CCOC(=O)c1c(C)n(Cc2ccc(F)cc2)c2ccc(O)cc12 | inconclusive: 23.1 µM [cytotoxic, single point] | – |
| COc1ccc(-n2c(/C=C/c3ccc4c(c3)OCO4)nc3ccccc3c2=O)cc1 | inconclusive: 32.6 µM [cytotoxic, single point] | – |
| O=C(O)C1Cc2ccccc2N2CCCC12 (stereo unspecified) | inactive | – |
| CCOC(=O)c1c(C=O)c2ccccc2n1Cc1ccccc1 | inconclusive: 29.1 µM [cytotoxic, single point] | – |
| O=C(NCCN1CCC2(CC1)C(=O)NCN2c1cccc(F)c1)c1ccc2ccccc2c1 | inconclusive: 29.1 µM [cytotoxic, single point] | – |
| CCCC(C)CC1(CCO)C(=O)NC(=S)NC1=O (stereo unspecified) | inactive | – |
| O=C1NCN(c2ccccc2)C12CCN(C(c1ccnc3ccccc13)c1nnnn1Cc1ccccc1)CC2 (stereo unspecified) | inconclusive: 32.6 µM [cytotoxic, single point] | – |
| CC1CCN(CC(=O)c2ccccc2Cl)CC1 | inactive | – |
| CCCCC1(CCCC)C(=O)NC(=Nc2cccc(C)c2)NC1=O | inconclusive: 16.4 µM [cytotoxic, single point] | – |
| CC(C)(C)NC(=S)/N=C(\N)N[N+](=O)[O-] | inactive | – |
| COC(=O)C1=C(c2ccc(OCc3ccccc3)cc2)C[C@@H]2CC[C@H]1N2C(=O)NCCCCc1ccccc1 | inconclusive: 20.6 µM [cytotoxic, single point] | – |
| COC(=O)C1=C(c2ccc(-c3ccccc3)c(F)c2)C[C@@H]2CC[C@H]1N2C(=O)N1CCc2cc(OC)c(OC)cc2C1 | inconclusive: 32.6 µM [cytotoxic, partial curve, poor fit] | – |
| C/C(=N/O)c1ccc2ccc3ccccc3c2c1 | inconclusive: 18.4 µM [cytotoxic, single point] | – |
| COC(=O)[C@]12OC[C@]34C([C@@H](O)[C@@H]1O)[C@]1(C)CC(=O)C(O)=C(C)[C@@H]1C[C@H]3OC(=O)[C@H](O)[C@@H]24 (stereo partly specified) | inconclusive: 20.6 µM [cytotoxic, single point] | – |
| CCCN1CCc2cccc3c2[C@H]1Cc1ccc(O)c(O)c1-3 | inactive | – |

Record cards, as listed above.
`Cc1c(N=Cc2c(O)n(Cc3ccco3)c(=O)[nH]c2=O)c(=O)n(-c2ccccc2)n1C` in the list: Potency: inactive
`CC(C)(C)NC(=S)/N=C(\N)N[N+](=O)[O-]` in the list: Potency: inactive
`CCOC(=O)c1c(C=O)c2ccccc2n1Cc1ccccc1` in the list: Potency: inconclusive: 29.1 µM [cytotoxic, single point]
`COC(=O)C1=C(c2ccc(F)cc2OCc2ccccc2)C[C@@H]2CC[C@H]1N2C(=O)NCCCOC(C)C` in the list: Potency: inactive

Look-ups from above.
`N#Cc1cc2c(nc1SCC(=O)Nc1ccc(Cl)cc1)C1CCN2CC1` – Potency: inconclusive: 20.6 µM [cytotoxic, single point]
`CCOC(=O)c1c(C=O)c2ccccc2n1Cc1ccccc1` – Potency: inconclusive: 29.1 µM [cytotoxic, single point]

Remaining list, next part:

| SMILES | Potency | activity change, negative = cytotoxic |
| --- | --- | --- |
| C=C1C2[C@H](OC(C)=O)[C@@H]3CC(=O)[C@]4(C)OC[C@@]3(C)[C@@]4(O)[C@@H](OC(C)=O)[C@H](OC(C)=O)[C@@]2(COC(=O)c2ccccc2)[C@@H](OC(C)=O)C[C@@H]1O (stereo partly specified) | inconclusive: 29.1 µM [cytotoxic, single point] | – |
| CC[n+]1c(/C=C/C=C/c2ccc(N(C)C)cc2)sc2ccccc21 | active: 1.46 µM | – |
| Cc1cc(NC(=O)COC(=O)c2c(C)nn(Cc3ccccc3)c2C)no1 | inconclusive: 29.1 µM [cytotoxic, single point] | – |
| c1ccc(C[n+]2ccccc2)cc1 | inactive | – |
| O=C(Nc1ccc(C(F)(F)F)cc1)c1cccn(Cc2ccc3c(c2)OC(F)(F)O3)c1=O | active: 8.2 µM | – |
| O=C(c1ccc(Cl)cc1)C1CCCN(Cc2cccc3ncccc23)C1 (stereo unspecified) | inconclusive: 18.4 µM [cytotoxic, single point] | – |
| CCN1CCC2(CCNC2)C1 (stereo unspecified) | inactive | – |
| COC(=O)C1=C(c2cccc(Cl)c2)C[C@@H]2CC[C@H]1N2C(=O)N1CCCC1 | inconclusive: 29.1 µM [cytotoxic, single point] | – |
| Cc1cccc2nc(-c3ccccc3)c(-c3ccc(CN4CCC(n5c(=O)[nH]c6ccccc65)CC4)cc3)nc12 | inconclusive: 20.6 µM [cytotoxic, single point] | – |
| O=c1[nH]c2ccccc2n1C1CCN(C(c2cccc3ccccc23)c2nnnn2-c2ccc3c(c2)OCCO3)CC1 (stereo unspecified) | inconclusive: 29.1 µM [cytotoxic, single point] | – |
| CN(C)c1ccc(/C=C2/C(=O)NC(=O)N(Cc3ccco3)C2=O)cc1 | inactive | – |
| O=c1[nH]c2ccccc2n1C1CCN(Cc2ccc(-c3[nH]c4cc5ncnc5cc4nc3-c3ccccc3)cc2)CC1 | inconclusive: 18.4 µM [cytotoxic, single point] | – |
| Cc1cc(C)c(S(=O)(=O)N2Cc3ccccc3-n3nncc3C2)c(C)c1 | inconclusive: 10.3 µM [cytotoxic, partial curve, poor fit] | – |
| O=C(c1ccccc1)C(CN1CCCC1)c1ccccc1 (stereo unspecified) | active: 5.17 µM | – |
| O=S(=O)(c1ccc(F)cc1)N1CCCCC1c1cccnc1 (stereo unspecified) | inactive | – |
| Cc1oc(-c2ccccc2)nc1CN1C(=O)CN=C(c2ccccc2)c2ccccc21 | inactive | – |
| C=CCn1c(O)c(C(C)=Nc2ccc(N(C)C)cc2)c(=O)[nH]c1=O | inconclusive: 23.1 µM [cytotoxic, single point] | – |
| O=c1[nH]c2ccccc2n1C1CCN(C(c2cccc3ccccc23)c2nnnn2Cc2ccccc2)CC1 (stereo unspecified) | inconclusive: 29.1 µM [cytotoxic, single point] | – |
| CC(C(=O)c1c[nH]c2ccccc12)N1CCc2ccccc2C1 (stereo unspecified) | inconclusive: 14.6 µM [cytotoxic, partial curve, poor fit] | – |
| CCOc1ccc(N2C(=O)NC(=O)/C(=C\c3ccc(N4CCCCC4)o3)C2=O)cc1 | inconclusive: 16.4 µM [rising, partial curve, poor fit] | – |
| C[C@@H]1CC2C3CC=C4C[C@@H](O)CC[C@]4(C)C3CC[C@]2(C)[C@H]1O (stereo partly specified) | inconclusive: 20.6 µM [cytotoxic, single point] | – |
